No constants are given. Whether binding was seen depends on the method and setting. Some results given as binding are weak or reduced against the parent protein; the word gives no strength.
Biological target: cynomolgus monkey CCR8 (cynomolgus monkey) (UniProt G7NYJ2)
Assay: FACS on HEK293T-c.CCR8 cells, mouse antibody

The chains behind the UniProt entries cited, without tags or fusion partners. Where a name states a change or a piece, a line headed by the entry shows the natural chain unless it says otherwise. A line that says so, or that is headed by a name, gives the form on record, which may keep a tag or linker.
cynomolgus monkey CCR8 (G7NYJ2, form named): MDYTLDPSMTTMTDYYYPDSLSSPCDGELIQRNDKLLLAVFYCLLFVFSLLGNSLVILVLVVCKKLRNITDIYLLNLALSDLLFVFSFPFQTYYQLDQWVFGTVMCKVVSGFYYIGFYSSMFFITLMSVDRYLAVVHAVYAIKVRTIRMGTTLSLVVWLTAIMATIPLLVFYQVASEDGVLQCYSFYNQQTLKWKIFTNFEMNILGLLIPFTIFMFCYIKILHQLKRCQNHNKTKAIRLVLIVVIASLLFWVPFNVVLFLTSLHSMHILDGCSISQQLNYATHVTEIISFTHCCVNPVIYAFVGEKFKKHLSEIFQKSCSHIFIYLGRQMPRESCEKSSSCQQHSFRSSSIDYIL

B1: 13F3H6 (anti-human CCR8 mouse monoclonal antibody) (antibody, V domains shown)
VH: EVQLVESGGGLVRPKGSLKFSCAASGFTFNAYAMNWVRQAPGKGLEWVARIRTKSNNYATYYADSVKDRFTISRDDSENMLYLQMNNLKTEDTAIYYCVRHKKVREGYAMDYWGQGTSVTVSS
VL: DIVLTQSPASLVLSLGQRATISCRASKSVSTSGYTYMHWYQQKPGQPPKLLIYLASNLESGVPARFSGSGSGTDFTLNIHPVEEEDAATYYCQHSRELPFTFGSGTKLEIK
For B1, the binding was “binds”.

From US20250388684A1
